The text below walks through data of US20160272716A1 (AGENSYS, published 2016).

Protein sequences, listed by entry. Tags and fused reporters are not part of them. Lines headed by an entry give the natural chain unless they say otherwise; changes in a name come on top.
UniProt P36888: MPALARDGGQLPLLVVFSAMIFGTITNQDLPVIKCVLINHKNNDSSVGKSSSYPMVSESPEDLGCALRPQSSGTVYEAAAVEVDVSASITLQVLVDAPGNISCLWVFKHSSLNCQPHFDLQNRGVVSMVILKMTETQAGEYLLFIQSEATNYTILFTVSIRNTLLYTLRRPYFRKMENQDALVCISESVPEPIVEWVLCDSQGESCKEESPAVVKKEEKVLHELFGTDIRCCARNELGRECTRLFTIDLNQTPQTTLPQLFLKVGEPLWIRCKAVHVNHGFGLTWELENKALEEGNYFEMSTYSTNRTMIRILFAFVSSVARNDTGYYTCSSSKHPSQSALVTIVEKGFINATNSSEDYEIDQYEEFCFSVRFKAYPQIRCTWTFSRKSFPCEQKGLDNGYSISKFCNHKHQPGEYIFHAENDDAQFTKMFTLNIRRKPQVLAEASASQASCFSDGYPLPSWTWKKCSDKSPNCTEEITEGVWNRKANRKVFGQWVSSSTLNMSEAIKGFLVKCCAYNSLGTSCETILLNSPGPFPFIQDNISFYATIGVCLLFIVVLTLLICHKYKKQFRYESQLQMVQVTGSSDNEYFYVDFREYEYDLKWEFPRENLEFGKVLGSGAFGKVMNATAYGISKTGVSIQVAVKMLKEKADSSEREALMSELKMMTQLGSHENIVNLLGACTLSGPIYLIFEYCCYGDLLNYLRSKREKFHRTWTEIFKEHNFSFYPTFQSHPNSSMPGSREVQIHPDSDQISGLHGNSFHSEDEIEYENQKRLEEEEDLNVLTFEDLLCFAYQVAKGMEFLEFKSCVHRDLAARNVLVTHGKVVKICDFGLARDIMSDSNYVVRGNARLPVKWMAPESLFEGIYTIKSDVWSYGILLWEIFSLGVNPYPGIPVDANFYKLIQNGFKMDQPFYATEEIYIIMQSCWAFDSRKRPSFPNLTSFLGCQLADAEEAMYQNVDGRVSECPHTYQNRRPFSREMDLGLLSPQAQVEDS

Results are given in words; binding and its absence hold for the method and conditions named. Some entries that bind do so weakly or less than the wild type.

In this test the target is recombinant human FLT3 protein (human) (UniProt P36888). Briefly: ELISA on FLT3 recombinant protein.

B1: v62-1b21 (hybridoma MAb) (antibody, V domains shown)
VH: EVQLVESGGGLVRPGGSLRLSCAASGFTFSGYSINWVRQAPGKGLEWVSSISSSSNYIYYADSVKGRFTISRDNAKNSLYLQMNSLRAEDTAVYYCAREGFIAGTTFDAFDIWGQGTMVTVSS
VL: DIQMTQSPSSLSASVGDRVTITCRASQGIRNDLGWYQQKPGKAPKRLIYAASSLQSGVPSRFSGSGSGTEFTLTISSLQPEDFATYYCLQHNGFPYTFGQGTKLEIKR
notes: also called AGS62.21; v62.21
B1: the binding result is given as “binds”.
